Results from patent US20050136142A1 (priority 2003, published 2005).
At least one compound was matched to its structure with a doubt left.

Tested on: wild type HBV
Type: cell-based, hepatitis B virus
Details: HepG2 and Huh7 cells transfected with plasmid; extract 500 μg/ml or lamivudine 200 μg/ml; two and four days; ELISA

Nc1ccn([C@@H]2CS[C@H](CO)O2)c(=O)n1 [lamivudine]
inhibition of e antigen of wild type HBV: could merely inhibit | inhibition of surface antigen of wild type HBV: could merely inhibit
